Values of other authors, collected in patent publication US20050222251A1, “Dual inhibition of cyclooxygenase-2 and carbonic anhydrase” (AMOREPACIFIC CORPORATION, priority 2004, published 2005).
At least one structure is not confirmed: it was looked up by name or label, or the drawing left a doubt.

Test system: COX-2 over COX-1
Conditions: human whole blood; cited from earlier work

Question: For `Cc1cnc(NC(=O)C2=C(O)c3ccccc3S(=O)(=O)N2C)s1` [Meloxicam], which “COX-2 selectivity over COX-1” value is on record?
Answer: 13 fold
